Values quoted from earlier work in PMC7343282, “Tissue Distribution of Several Series of Cationic Surfactants in Rainbow Trout (Oncorhynchus mykiss) Following Exposure via Water” (Environmental Science & Technology, 2020).

Tested on: tadpoles
Settings: 24 h exposure via water; cited from earlier work

CCCCCCCCCCCCCCCC[n+]1ccccc1.[Br-] [hexadecylpyridinium bromide]
concentrations in liver, kidney, and fat body, times lower than the concentration in gills: 30–100
